The target in this test is T1, Fas (human), P25445.
T1 chain: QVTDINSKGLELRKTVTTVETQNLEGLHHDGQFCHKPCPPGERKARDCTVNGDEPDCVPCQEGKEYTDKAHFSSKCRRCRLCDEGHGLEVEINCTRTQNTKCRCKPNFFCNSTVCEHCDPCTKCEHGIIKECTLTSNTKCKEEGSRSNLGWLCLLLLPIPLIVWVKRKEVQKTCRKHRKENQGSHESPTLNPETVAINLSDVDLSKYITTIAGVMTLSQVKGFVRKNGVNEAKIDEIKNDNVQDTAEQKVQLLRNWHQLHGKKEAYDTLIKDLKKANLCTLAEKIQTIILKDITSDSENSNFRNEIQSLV
In words: DISC co-immunoprecipitation through the Flag-tagged ligand, immunoblot; BJAB cells on ice. The following applies: remark: other sources report otherwise. On the technique in general: In western blotting, separated proteins are transferred to a membrane and probed.

No constants are given. Whether binding was seen depends on the method and setting. In cells and extracts the contact can be indirect. Some binding calls cover weakened binding; strength is not graded here.

B1: FADD, Q13158 1-208 (protein, human, UniProt Q13158 1-208, looked up)
chain: MDPFLVLLHSVSSSLSSSELTELKFLCLGRVGKRKLERVQSGLDLFSMLLEQNDLEPGHTELLRELLASLRRHDLLRRVDDFEAGAAAGAAPGEEDLCAAFNVICDNVGKDWRRLARQLKVSDTKIDSIEDRYPRNLTERVRESLRIWKNTEKENATVAHLVGALRSCQMNLVADLVQEVQQARDLQNRSGAMSPMSWNSDASTSEAS
For B1, the binding entry is listed as “binds”.
